Results are given in words; binding and its absence hold for the method and conditions named. Binding seen in cells or lysates may run through a third protein. Here binding means that the protein was enriched with, or labelled near, the bait; the list need not be complete.
B1: Metaxin3 (protein, UniProt Q5HYI7 1-312)
chain: MAAPLELSCWGGGWGLPSVHSESLVVMAYAKFSGAPLKVNVIDNTWRGSRGDVPILTTEDDMVSQPAKILNFLRKQKYNADYELSAKQGADTLAYIALLEEKLLPAVLHTFWVESDNYFTVTKPWFASQIPFPLSLILPGRMSKGALNRILLTRGQPPLYHLREVEAQIYRDAKECLNLLSNRLGTSQFFFGDTPSTLDAYVFGFLAPLYKVRFPKVQLQEHLKQLSNLCRFCDDILSSYFRLSLGGISPAGQETVDANLQKLTQLVNKESNLIEKMDDNLRQSPQLPPRKLPTLKLTPAEEENNSFQRLSP
B2: Sam50 (protein, UniProt Q9Y512 1-469)
chain: MGTVHARSLEPLPSSGPDFGGLGEEAEFVEVEPEAKQEILENKDVVVQHVHFDGLGRTKDDIIICEIGDVFKAKNLIEVMRKSHEAREKLLRLGIFRQVDVLIDTCQGDDALPNGLDVTFEVTELRRLTGSYNTMVGNNEGSMVLGLKLPNLLGRAEKVTFQFSYGTKETSYGLSFFKPRPGNFERNFSVNLYKVTGQFPWSSLRETDRGMSAEYSFPIWKTSHTVKWEGVWRELGCLSRTASFAVRKESGHSLKSSLSHAMVIDSRNSSILPRRGALLKVNQELAGYTGGDVSFIKEDFELQLNKQLIFDSVFSASFWGGMLVPIGDKPSSIADRFYLGGPTSIRGFSMHSIGPQSEGDYLGGEAYWAGGLHLYTPLPFRPGQGGFGELFRTHFFLNAGNLCNLNYGEGPKAHIRKLAECIRWSYGAGIVLRLGNIARLELNYCVPMGVQTGDRICDGVQFGAGIRFL

Amino acid sequences for entries named in this document (tags omitted).
UniProt Q96H55: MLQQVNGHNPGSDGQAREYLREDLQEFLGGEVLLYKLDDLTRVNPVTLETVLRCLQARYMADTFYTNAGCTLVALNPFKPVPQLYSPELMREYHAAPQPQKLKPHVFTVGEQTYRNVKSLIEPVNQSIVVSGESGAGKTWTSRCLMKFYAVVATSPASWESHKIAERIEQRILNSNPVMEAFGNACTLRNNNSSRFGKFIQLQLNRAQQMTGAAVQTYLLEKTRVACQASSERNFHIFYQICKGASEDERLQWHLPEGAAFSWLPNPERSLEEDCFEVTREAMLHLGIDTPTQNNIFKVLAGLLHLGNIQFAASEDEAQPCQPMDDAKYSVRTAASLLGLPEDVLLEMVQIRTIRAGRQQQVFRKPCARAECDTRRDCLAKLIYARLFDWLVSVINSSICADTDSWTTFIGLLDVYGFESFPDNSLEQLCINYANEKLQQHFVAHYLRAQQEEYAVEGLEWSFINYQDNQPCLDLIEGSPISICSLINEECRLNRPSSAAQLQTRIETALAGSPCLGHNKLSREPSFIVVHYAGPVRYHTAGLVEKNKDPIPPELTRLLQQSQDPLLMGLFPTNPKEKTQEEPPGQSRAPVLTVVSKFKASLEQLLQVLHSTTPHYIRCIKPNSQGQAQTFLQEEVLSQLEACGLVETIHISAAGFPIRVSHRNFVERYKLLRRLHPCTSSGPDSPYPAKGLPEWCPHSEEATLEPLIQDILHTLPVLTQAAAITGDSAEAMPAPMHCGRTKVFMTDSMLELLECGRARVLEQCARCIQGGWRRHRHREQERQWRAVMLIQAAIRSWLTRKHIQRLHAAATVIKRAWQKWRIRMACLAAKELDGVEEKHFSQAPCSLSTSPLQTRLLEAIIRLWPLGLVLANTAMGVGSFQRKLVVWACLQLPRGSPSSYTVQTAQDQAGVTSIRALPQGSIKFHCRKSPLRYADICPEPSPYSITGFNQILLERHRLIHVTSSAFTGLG

Biological target: Myosin 19 (human (endogenous in MDA-MB-231)) (UniProt Q96H55)
Test: affinity purification with mass spectrometry; immunoprecipitation of Myo19 from cell lysate (IP lysis buffer: 150 mM NaCl, 25 mM Tris-HCl, 0.5% NP-40, pH 7.4), protein A/G beads, gel pieces analysed by mass spectrometry

| Binder | binding |
| --- | --- |
| B1 | binds |
| B2 | binds |
